Assay results as given in article PMC10592355.
Results are given in words; binding and its absence hold for the method and conditions named. Binding seen in cells or lysates may run through a third protein. Some entries that bind do so weakly or less than the wild type.

Protein sequences, listed by entry. Tags and fused reporters are not part of them.
UniProt Q14839: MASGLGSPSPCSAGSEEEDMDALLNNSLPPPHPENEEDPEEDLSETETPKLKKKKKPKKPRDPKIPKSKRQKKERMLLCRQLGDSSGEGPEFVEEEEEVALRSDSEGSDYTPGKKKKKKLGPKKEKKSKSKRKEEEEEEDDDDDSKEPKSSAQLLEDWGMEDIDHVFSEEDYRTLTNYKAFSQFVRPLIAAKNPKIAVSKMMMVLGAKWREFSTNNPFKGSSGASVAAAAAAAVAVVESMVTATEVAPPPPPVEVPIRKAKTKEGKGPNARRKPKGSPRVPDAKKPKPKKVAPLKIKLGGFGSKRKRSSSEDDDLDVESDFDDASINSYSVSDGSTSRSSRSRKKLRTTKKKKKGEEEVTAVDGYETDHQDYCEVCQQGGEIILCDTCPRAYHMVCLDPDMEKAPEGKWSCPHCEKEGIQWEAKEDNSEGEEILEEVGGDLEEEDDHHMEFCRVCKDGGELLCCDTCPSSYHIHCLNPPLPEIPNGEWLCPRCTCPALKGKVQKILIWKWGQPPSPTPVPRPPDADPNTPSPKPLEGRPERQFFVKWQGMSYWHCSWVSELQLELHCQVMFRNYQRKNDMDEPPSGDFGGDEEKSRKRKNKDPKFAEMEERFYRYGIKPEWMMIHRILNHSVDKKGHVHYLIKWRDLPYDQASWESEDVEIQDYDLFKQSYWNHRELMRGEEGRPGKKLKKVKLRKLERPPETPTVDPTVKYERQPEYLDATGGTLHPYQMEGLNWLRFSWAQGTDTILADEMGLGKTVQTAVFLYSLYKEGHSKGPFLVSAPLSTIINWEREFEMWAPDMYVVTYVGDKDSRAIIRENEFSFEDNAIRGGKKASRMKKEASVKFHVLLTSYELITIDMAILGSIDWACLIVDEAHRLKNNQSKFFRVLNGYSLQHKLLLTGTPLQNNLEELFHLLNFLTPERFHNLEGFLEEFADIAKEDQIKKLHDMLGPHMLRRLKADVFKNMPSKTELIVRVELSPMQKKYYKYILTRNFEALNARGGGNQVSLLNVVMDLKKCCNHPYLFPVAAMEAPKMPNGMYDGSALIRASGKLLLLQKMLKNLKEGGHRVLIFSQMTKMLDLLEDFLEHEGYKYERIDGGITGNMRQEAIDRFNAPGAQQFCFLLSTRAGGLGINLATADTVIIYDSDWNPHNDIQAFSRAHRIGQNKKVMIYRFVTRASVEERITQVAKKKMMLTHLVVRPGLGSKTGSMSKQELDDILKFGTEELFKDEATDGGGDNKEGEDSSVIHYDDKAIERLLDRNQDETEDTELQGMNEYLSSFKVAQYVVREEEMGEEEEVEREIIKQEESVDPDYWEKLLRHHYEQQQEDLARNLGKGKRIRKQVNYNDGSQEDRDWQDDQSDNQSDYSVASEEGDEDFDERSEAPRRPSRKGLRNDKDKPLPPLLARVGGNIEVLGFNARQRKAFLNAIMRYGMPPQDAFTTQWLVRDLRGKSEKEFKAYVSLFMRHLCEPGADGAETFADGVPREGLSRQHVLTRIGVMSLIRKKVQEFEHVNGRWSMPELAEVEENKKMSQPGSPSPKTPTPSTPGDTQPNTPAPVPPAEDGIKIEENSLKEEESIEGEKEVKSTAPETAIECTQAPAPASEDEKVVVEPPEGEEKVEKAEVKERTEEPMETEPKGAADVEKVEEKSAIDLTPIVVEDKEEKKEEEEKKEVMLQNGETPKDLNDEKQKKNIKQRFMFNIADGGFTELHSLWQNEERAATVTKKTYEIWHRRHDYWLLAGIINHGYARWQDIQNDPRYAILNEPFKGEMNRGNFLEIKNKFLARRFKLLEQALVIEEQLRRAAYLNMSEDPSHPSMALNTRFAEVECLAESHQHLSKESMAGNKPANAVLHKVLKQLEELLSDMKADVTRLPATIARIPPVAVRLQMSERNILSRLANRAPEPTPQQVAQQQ
UniProt Q13547: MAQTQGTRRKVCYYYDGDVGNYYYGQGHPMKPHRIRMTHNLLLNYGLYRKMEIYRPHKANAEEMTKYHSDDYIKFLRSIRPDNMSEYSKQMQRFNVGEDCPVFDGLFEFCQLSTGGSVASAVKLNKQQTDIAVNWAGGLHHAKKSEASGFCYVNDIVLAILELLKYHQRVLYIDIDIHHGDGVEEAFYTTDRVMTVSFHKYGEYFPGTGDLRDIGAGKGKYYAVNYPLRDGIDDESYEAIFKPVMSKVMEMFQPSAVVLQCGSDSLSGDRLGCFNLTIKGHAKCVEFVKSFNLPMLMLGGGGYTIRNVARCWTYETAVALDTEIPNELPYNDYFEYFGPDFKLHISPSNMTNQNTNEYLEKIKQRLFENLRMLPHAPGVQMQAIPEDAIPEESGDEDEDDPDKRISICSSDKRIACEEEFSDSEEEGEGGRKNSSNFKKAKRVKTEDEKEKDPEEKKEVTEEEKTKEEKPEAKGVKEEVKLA
UniProt Q92769: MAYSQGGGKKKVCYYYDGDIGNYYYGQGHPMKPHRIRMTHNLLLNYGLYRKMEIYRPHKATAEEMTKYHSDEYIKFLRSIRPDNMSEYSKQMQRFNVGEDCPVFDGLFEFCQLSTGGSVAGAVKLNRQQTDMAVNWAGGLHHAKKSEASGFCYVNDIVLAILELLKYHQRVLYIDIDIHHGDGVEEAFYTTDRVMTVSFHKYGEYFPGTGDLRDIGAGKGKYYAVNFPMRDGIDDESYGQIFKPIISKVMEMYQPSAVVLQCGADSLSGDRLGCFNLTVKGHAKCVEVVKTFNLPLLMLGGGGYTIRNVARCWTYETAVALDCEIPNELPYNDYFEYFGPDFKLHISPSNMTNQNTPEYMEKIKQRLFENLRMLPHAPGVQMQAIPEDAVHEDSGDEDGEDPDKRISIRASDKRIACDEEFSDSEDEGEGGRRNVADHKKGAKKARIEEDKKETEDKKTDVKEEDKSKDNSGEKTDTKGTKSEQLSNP

Molecular target: T1, tyrosyl-tRNA synthetase (TyrRS) (human (endogenous in HEK293)) (UniProt P54577)
T1 sequence: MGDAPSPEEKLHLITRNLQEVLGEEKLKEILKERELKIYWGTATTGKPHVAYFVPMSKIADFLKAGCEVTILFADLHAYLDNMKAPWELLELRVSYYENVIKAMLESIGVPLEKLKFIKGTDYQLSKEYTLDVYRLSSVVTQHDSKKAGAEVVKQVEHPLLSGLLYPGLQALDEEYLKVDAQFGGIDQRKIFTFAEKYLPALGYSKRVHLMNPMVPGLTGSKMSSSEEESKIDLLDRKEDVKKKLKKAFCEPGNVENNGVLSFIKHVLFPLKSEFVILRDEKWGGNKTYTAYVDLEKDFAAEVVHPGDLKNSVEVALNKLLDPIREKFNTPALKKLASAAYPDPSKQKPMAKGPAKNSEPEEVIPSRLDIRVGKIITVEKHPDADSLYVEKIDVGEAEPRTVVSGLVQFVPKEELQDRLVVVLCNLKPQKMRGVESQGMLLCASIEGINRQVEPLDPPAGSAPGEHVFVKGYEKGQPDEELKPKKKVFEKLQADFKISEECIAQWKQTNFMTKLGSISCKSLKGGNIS
Test: co-IP; HEK293 cell lysates mixed overnight with Protein G beads pre-incubated with anti-TyrRS antibody; washed 3 times with 100 mM NaCl, 50 mM Tris, pH 7.5, 0.1% Triton X-100, 5% glycerol; Western blot

| binding | Substance |
| --- | --- |
| binds | CHD4 (from UniProt Q14839 1-1912) |
| binds | HDAC1 (from UniProt Q13547 1-482) |
| binds | HDAC2 (from UniProt Q92769 1-488) |
